This data set deals with LPS-induced proinflammatory factor nitric oxide (NO) in immunocompetent BV-2 cells. The experiment in a line: NO assay: inhibition of LPS-induced NO overproduction in BV-2 cells. It is filed as cell-based. Conditions: for Therapeutic index (TI): TI = IC50 of cellular viability/IC50 of NO. How it is done:
BV-2 cells were seeded at a density of 5×10^4 cells per milliliter in 96-well plates. After 24 h incubation, the media was removed and changed to DMEM without FBS and penicillin-streptomycin. LPS (200 ng/mL) and different concentrations of compounds were added. After 24 h treatment, 100 μL of media was transferred to flat black 96-well micro fluor plates, and then, 10 μL of 0.05 mg/mL 2,3-diaminonaphthalene was added and incubated in the dark for 15 min. 5 μL of NaOH (3 M) was subsequently added to each well to quench the reaction. NO inhibition ratio was analyzed by a SYNERGY H1 Microplate Reader (BioTek Instruments, Carlsbad, CA, USA) with excitation at 360 nm and emission at 430 nm. The fluorescence value of the LPS-treated group was set as 100%.

SMILES strings stand for the structures.

In the case of `C=C(C)[C@@H]1CCC(C)=C[C@H]1c1c(O)cc(C(C)n2nccn2)cc1O` (stereo partly drawn) [CIAC001, (1′R,2′R)-4-(1-(2H-1,2,3-Triazol-2-yl)ethyl)-5′-methyl-2′-(prop-1-en-2-yl)-1′,2′,3′,4′-tetrahydro-[1,1′-biphenyl]-2,6-diol], the “Therapeutic index (TI)” value (listed as 19a (CIAC001)) amounted to 23.1 ± 6.6. For the same compound, the “fold improvement of therapeutic index relative to CBD” value runs as follows: (vs CBD) ~ 30 fold; (vs CBD, listed as 19a (CIAC001)) “about 30 fold”. The “fold increased anti-neuroinflammatory activity compared to CBD” value (vs CBD) is on record as 4.9 fold.

Consider `C=C(C)[C@@H]1CCC(C)=C[C@H]1c1c(O)cc(CCCCC)cc1OCC` [Compound 2a, (1′ R,2′R)-6-Ethoxy-5′-methyl-4-pentyl-2′-(prop-1-en-2-yl)-1′,2′,3′,4′-tetrahydro-[1,1′-biphenyl]-2-ol], for which the “Therapeutic index (TI)” value was 1.1 ± 0.1.

Consider `C=CCOc1cc(CCCCC)cc(O)c1[C@@H]1C=C(C)CC[C@H]1C(=C)C` [Compound 4a, (1′R,2′R)-6-(Allyloxy)-5′-methyl-4-pentyl-2′-(prop-1-en-2-yl)-1′,2′,3′,4′-tetrahydro-[1,1′-biphenyl]-2-ol], for which the “Therapeutic index (TI)” value amounted to 0.7 ± 0.1.

On to `C#CCOc1cc(CCCCC)cc(O)c1[C@@H]1C=C(C)CC[C@H]1C(=C)C` [Compound 5a, (1′R,2′R)-5′-Methyl-4-pentyl-2′-(prop-1-en-2-yl)-6-(prop-2-yn-1-yloxy)-1′,2′,3′,4′-tetrahydro-[1,1′-biphenyl]-2-ol], for which the “Therapeutic index (TI)” value turned out to be 1.2 ± 0.4.

`C=C(C)[C@@H]1CCC(C)=C[C@H]1c1c(O)cc(CCC)cc1O` [Compound 12b, (1′R,2′R)-5′-Methyl-2′-(prop-1-en-2-yl)-4-propyl-1′,2′,3′,4′-tetra-hydro-[1,1′-biphenyl]-2,6-diol, reference compound]: the “Therapeutic index (TI)” value came out at 3.5 ± 2.0.

For the compound `C=C(C)[C@@H]1CCC(C)=C[C@H]1c1c(O)cc(CCCC)cc1O` [Compound 12c], the “Therapeutic index (TI)” value came out at 2.2 ± 1.6.

Regarding `C=C(C)[C@@H]1CCC(C)=C[C@H]1c1c(O)cc(CCCCCC)cc1O` [Compound 12e, (1′R,2′R)-4-Hexyl-5′-methyl-2′-(prop-1-en-2-yl)-1′,2′,3′,4′-tetra-hydro-[1,1′-biphenyl]-2,6-diol], the “Therapeutic index (TI)” value worked out at 9.0 ± 1.9.

Turning to `C=C(C)[C@@H]1CCC(C)=C[C@H]1c1c(O)cc(CCCCCCC)cc1O` [Compound 12f, (1′R,2′R)-4-Heptyl-5′-methyl-2′-(prop-1-en-2-yl)-1′,2′,3′,4′-tetra-hydro-[1,1′-biphenyl]-2,6-diol], the “Therapeutic index (TI)” value was 0.3 ± 0.1.

As for `C=C(C)[C@@H]1CCC(C)=C[C@H]1c1c(O)cc(CCCCCCCC)cc1O` [Compound 12g, (1′R,2′R)-5′-Methyl-4-octyl-2′-(prop-1-en-2-yl)-1′,2′,3′,4′-tetra-hydro-[1,1′-biphenyl]-2,6-diol], the “Therapeutic index (TI)” value amounted to 0.2 ± 0.1.

In the case of `C=C(C)[C@@H]1CCC(C)=C[C@H]1c1c(O)cc(C(C)n2ccnc2)cc1O` (stereo partly drawn) [Compound 19c, (1′R,2′R)-4-(1-(1H-Imidazole-1-yl)ethyl)-5′-methyl-2′-(prop-1-en-2-yl)-1′,2′,3′,4′-tetrahydro-[1,1′-biphenyl]-2,6-diol], the “Therapeutic index (TI)” value worked out at 7.4 ± 1.2.

The values above are taken from US20260242320A1, “USE OF CANNABIDIOL DERIVATIVE IN PREPARATION OF MEDICAMENT” (priority 2023, published 2026).
